The other results are listed elsewhere or left out. Further columns of the screen follow, without active or inactive calls. The list favours compounds with an active or inconclusive main result. Words in brackets tell the shape of the fitted curve; partial curves, single points and poor fits give uncertain potencies.
Test: qHTS Assay to Find Inhibitors of Chronic Active B-Cell Receptor Signaling
Conditions: ABC-DLBCL IkBa-CBG/CBR reporter, luminescence ratio (green luciferase fused to IkBa over red control in TMD8 lymphoma cells), 4 h
Outline: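 TMD8 human ABC-DLBCL cells with doxycycline-inducible IκBα–green luciferase fusion and unfused red luciferase, in 0.5% FBS medium; compounds up to 46 uM, 4 h at 37C. Green/red luminescence ratio, filter-overlap corrected, fitted to concentration-response curves.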

[1] = measured here: CBR red luminescence, cell number
[2] = measured here: IkBa-CBG green luminescence

Row | SMILES | AC50 [1] | AC50 [2]
1 | C/C(=N\N)c1c(-c2ccccc2)c2cc(C)ccc2[nH]c1=O | 17.8 µM [rising, single point] | –
2 | Cc1ccn2c(C(=O)N/N=C\c3ccc4c(c3)OCO4)c(C)nc2c1 | 3.26 µM [rising, full curve] | –
3 | CCN(CC)c1ccc(/C=N/NC(=O)c2ccc3c(c2)OCCO3)cc1 | 5.01 µM [falling, full curve] | –
4 | COc1cc(C)c(N)cc1C(C)C | 29.1 µM [rising, single point] | –
5 | O=C(O)CCSc1nc2ccccc2n1-c1ccccc1 | 3.98 µM [rising, full curve] | –
6 | COc1cccc(OCCOCCN(C)CCO)c1 | 20.6 µM [rising, single point] | –
7 | Cc1c(NC(=O)C2CC=CCC2C(=O)O)c(=O)n(-c2ccccc2)n1C (stereo unspecified) | 2.31 µM [rising, partial curve] | –
8 | O=C(COC(=O)c1c[nH]c2ccccc12)Nc1ccccc1 | 23.1 µM [falling, single point] | –
9 | CCN(CC)S(=O)(=O)c1cc(NC(=O)C(C)N2CCN(c3ccccn3)CC2)ccc1C (stereo unspecified) | 35.5 µM [falling, single point] | –
10 | CCOC(=O)c1cccc(NC(=O)c2ccc3c(c2)OCO3)c1 | 3.98 µM [falling, full curve] | –
11 | COc1ccc(C(=O)Nc2cccc(-c3cc4ccccc4oc3=O)c2)cc1[N+](=O)[O-] | 23.1 µM [rising, single point] | –
12 | Cc1nnc(SCC(=O)Nc2sccc2C#N)s1 | 3.98 µM [rising, single point] | –
13 | O=C(COC(=O)Cn1nnc2ccccc21)NC1CCCC1 | 6.31 µM [rising, partial curve, poor fit] | –
14 | OC(CN1CCN(c2ccccn2)CC1)Cn1c2ccccc2c2ccccc21 (stereo unspecified) | 0.13 µM [falling, single point] | –
15 | COc1ccc(S(=O)(=O)N2CCC(C(=O)Nc3ccccc3N3CCCC3)CC2)cc1OC | 0.1 µM [rising, full curve, poor fit] | –
16 | COc1ccc2nccc(/C=C/c3ccnc4ccc(OC)cc34)c2c1 | 11.2 µM [falling, single point] | –
17 | C(=N\N=C\c1ccccc1)/c1ccccc1 | 1.26 µM [rising, full curve, poor fit] | –
18 | COc1ccc(C2=NN(C(=O)c3ccccc3)C(c3ccc(OC)c(OC)c3)C2)cc1OC (stereo unspecified) | – | 3.16 µM [falling, partial curve, poor fit]
19 | COc1ccc(/C=C/C(=O)c2ccc(C(=O)/C=C/c3ccc(OC)c(OC)c3)cc2)cc1OC | – | 12.6 µM [falling, partial curve]
20 | O=C(O)c1ccc(/C=N\Nc2ccc(S(=O)(=O)N3CCOCC3)cc2[N+](=O)[O-])cc1 | 1 µM [rising, full curve, poor fit] | –
21 | CC1CCCCC1NCC#CCOc1ccc(Cl)cc1 (stereo unspecified) | 22.4 µM [falling, single point] | –

Row | SMILES | AC50 [1] | AC50 [2]
22 | CC1CC(=O)NN=C1c1ccc(NCCO)c([N+](=O)[O-])c1 (stereo unspecified) | 23.1 µM [rising, partial curve, poor fit] | –
23 | CC(C)Oc1nnnn1-c1ccccc1 | 35.5 µM [rising, single point] | –
24 | CCc1nc(N)c(C#N)c(-c2ccc(OC)c(OC)c2)c1C | 0.461 µM [rising, full curve, poor fit] | –
25 | CCc1cc(C(=O)N=Nc2c(O)[nH]c3ccc([N+](=O)[O-])cc23)c2ccccc2n1 | 20.6 µM [falling, partial curve] | 29.1 µM [rising, partial curve, poor fit]
26 | CCOc1ccc(/C=N/NC(=O)c2cc3c(OC)cc(OC)cc3[nH]2)cc1OC | 7.08 µM [falling, full curve, poor fit] | –
27 | COc1ccc(OCCCC(=O)Nc2ccc(OC)c(S(=O)(=O)N3CCOCC3)c2)cc1 | 3.66 µM [rising, single point] | –
28 | CC(C)NC(=S)NNc1nc2ccccc2s1 | 17.8 µM [rising, partial curve, poor fit] | –
29 | COc1ccccc1C(=O)Nc1ccon1 | 13 µM [falling, partial curve, poor fit] | –
30 | Cc1cccc(Nc2ccc(C(=O)N3CCOCC3)cn2)c1 | 5.62 µM [rising, single point] | –
31 | O=C(CCCCCN1C(=O)c2ccccc2C1=O)NCc1ccccn1 | 10 µM [rising, partial curve, poor fit] | –
32 | COc1nc(NCC(C)C)nc(Oc2ccc(OCc3ccccc3)nn2)n1 | – | 7.31 µM [falling, partial curve, poor fit]
33 | COCCn1c(SCc2ccccc2)nc2c1c(=O)[nH]c(=O)n2C | 14.1 µM [rising, single point] | –
34 | O=Cc1cn(-c2ccccc2)nc1-c1ccc(F)cc1 | 7.08 µM [rising, partial curve] | –
35 | COc1ccc(C/C(C)=N/NC(=S)Nc2ccccc2F)cc1 | 22.4 µM [falling, partial curve, poor fit] | 35.5 µM [falling, single point]
36 | COCCNCCOCCOc1ccc(Cl)c(C)c1 | 32.6 µM [falling, partial curve, poor fit] | –
37 | CC(=O)c1sc2nc(C)c3c(c2c1N)CCCC3 | 5.62 µM [rising, partial curve, poor fit] | –
38 | Cc1c(Nc2nc3ccccc3nc2NS(=O)(=O)c2cccc(Cl)c2)c(=O)n(-c2ccccc2)n1C | 14.6 µM [falling, single point] | –
39 | O=C(O)c1ccccc1OC(=O)C12CC3CC(CC(C3)C1)C2 | 17.8 µM [rising, single point] | –
40 | O=C(CNC(=O)c1cccc(F)c1)N/N=C/c1cccs1 | 11.2 µM [rising, partial curve, poor fit] | –
41 | Oc1c(C(c2ccccn2)N2CCC(Cc3ccccc3)CC2)cc(Cl)c2cccnc12 (stereo unspecified) | – | 5.62 µM [falling, single point]
42 | CCOC(=O)c1ccc(N/N=C/c2cc(Br)cc([N+](=O)[O-])c2O)cc1 | 0.794 µM [falling, full curve] | –

Whole records, looked up by structure. Order of values: AC50 [1] | AC50 [2]
COCCNCCOCCOc1ccc(Cl)c(C)c1 is entered as 32.6 µM [falling, partial curve, poor fit] | –
COc1nc(NCC(C)C)nc(Oc2ccc(OCc3ccccc3)nn2)n1 is entered as – | 7.31 µM [falling, partial curve, poor fit]

Carrying on:

Row | SMILES | AC50 [1] | AC50 [2]
43 | CC(=O)c1cccc(NC=C2C(=O)OC3(CCCCC3)OC2=O)c1 | 35.5 µM [rising, single point] | –
44 | C/C(=N\Nc1ccc(C(=O)O)cc1)c1nc2ccccc2n1C | 0.0517 µM [falling, full curve] | –
45 | Cc1ccc(C)c(C(=O)COc2ccc(C)nc2[N+](=O)[O-])c1 | 29.1 µM [falling, single point] | –
46 | O=C(CC1C(=O)NCCN1Cc1c(F)cccc1Cl)NCCc1ccccn1 (stereo unspecified) | 3.16 µM [rising, partial curve, poor fit] | –
47 | CCOC(=O)c1cc(C(=O)OCC)c(=O)[nH]c1N1CCCC1 | 35.5 µM [falling, partial curve, poor fit] | –
48 | COc1cc(SC)ccc1C(=O)N1CCN(c2ccccc2F)CC1 | 7.08 µM [falling, partial curve, poor fit] | –
49 | NC1=NC(c2ccccc2Cl)n2c(nc3ccccc32)N1 (stereo unspecified) | 20 µM [falling, single point] | –
50 | Cc1ccc(N(CC(=O)NCc2ccccn2)S(=O)(=O)c2ccccc2)cc1C | 11.2 µM [falling, partial curve, poor fit] | –
51 | CCN(CC)C(=O)Cn1cc(C(=O)C(=O)Nc2ccc3c(c2)OCCO3)c2ccccc21 | 3.98 µM [falling, partial curve, poor fit] | –
52 | CC1OC(Oc2ccc3ccc(=O)oc3c2-c2c(O)ccc3cc(Oc4ccc5ccc(=O)oc5c4)c(=O)oc23)C(O)C(O)C1O (stereo unspecified) | 16.4 µM [rising, single point] | –
53 | COc1cccc(/C=C2\SC(=S)N(CCCC(=O)Nc3cc(C)on3)C2=O)c1 | 3.16 µM [falling, partial curve, poor fit] | –
54 | O=C(/C=C/c1ccc([N+](=O)[O-])cc1)OCC(=O)N1CCCCCC1 | 0.082 µM [rising, full curve, poor fit] | –
55 | CCCCNC(=O)c1onc(CCl)c1C(=O)OC | 7.94 µM [falling, partial curve, poor fit] | 35.5 µM [falling, single point]
56 | CS(=O)(=O)N1Cc2ccccc2CC1C(=O)OCC(=O)NCCc1ccc(S(N)(=O)=O)cc1 (stereo unspecified) | 29.1 µM [rising, single point] | –
57 | CC1(C)CC(=O)C2=C(C1)OC(N)=C(C#N)C2c1ccccc1[N+](=O)[O-] (stereo unspecified) | 6.31 µM [rising, single point] | –
58 | COc1cc(CNn2c(C)n[nH]c2=S)cc(Cl)c1OCc1ccccc1 | 35.5 µM [rising, partial curve, poor fit] | –
59 | COC(=O)c1cc(COC(=O)c2ccc(OC)c(S(=O)(=O)N3CCCC3)c2)oc1C | 0.164 µM [rising, full curve, poor fit] | –
60 | O=C(CSc1nc2sc3c(c2c(=O)n1-c1ccccc1)CCCC3)N/N=C/c1ccc(C(=O)O)cc1 | 15.8 µM [rising, partial curve, poor fit] | –
61 | COc1ccccc1OCCNC(=O)C(CCSC)NC(=O)COc1ccccc1 (stereo unspecified) | 29.1 µM [falling, single point] | –
62 | COc1ccc(-c2[nH]ncc2CNC(C)c2cn(C)nc2C)c(F)c1 (stereo unspecified) | 35.5 µM [falling, single point] | –
63 | CC(NCc1ccc(-c2ccccc2)cc1)C(O)c1ccccc1 (stereo unspecified) | – | 23.1 µM [falling, single point]

Source: PubChem BioAssay AID493014 (National Center for Advancing Translational Sciences (NCATS), 2011)
